Measured values as given in patent US20190008848A1, “IDENTIFICATION OF ADDITIONAL ANTI-PERSISTER ACTIVITY AGAINST BORRELIA BURGDORFERI FROM AN FDA DRUG LIBRARY” (THE JOHNS HOPKINS UNIVERSITY, priority 2015, published 2019).

Tested on: stationary phase B. burgdorferi
Experiment: SYBR Green I/PI viability assay (drug library screen, plate reader)
Settings: screen at 50 μM, 7 days
Method: Borrelia burgdorferi strain B31 (ATCC35210) was received from the […] (Manassas, Va., USA) and was grown in BSK-H medium (HiMedia Laboratories, Mumbai, India) and 6% rabbit serum (Sigma Aldrich, St. Louis, Mo., USA). The culture was filtered and sterilized using a […] and incubated in capped sterile 50 mL conical tubes (BD Biosciences, CA, USA) at 33° C. for 7 days without antibiotics until the culture reached stationary phase.
The cultures were examined using a Nikon Eclipse E800 microscope with differential interference contrast and epifluorescent illumination. The pictures were captured using a SPOT slider color camera. A SYBR Green I/PI assay was used to assess the viability of the bacterial sample using the ratio of live to dead B. burgdorferi (measured with green and red fluorescence, respectively) as measured by a plate reader.
Briefly, prediluted drug stock (10 μL) was added to 7 day old stationary phase B. burgdorferi culture (90 μL) to achieve a 50 μM final drug concentration per well. The plates were then incubated at 33° C. for 7 days at which point the SYBR/PI rapid viability assay was performed in a fluorescence plate reader to obtain the green-red fluorescence ratio.

Clc1ccc(CO/N=C(\Cn2ccnc2)c2ccc(Cl)cc2Cl)c(Cl)c1 [Oxiconazole nitrate]
activity against stationary phase B. burgdorferi (in words): reasonable activity
